Counter-ions that a name gives are not always drawn. Some of the results follow. Many values rest on one well or one pass, so single values are uncertain.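 Primary human fetal astrocytes engulfed labelled rat cortical synaptosomes, measured as a red/green ratio corrected for calcein live-cell signal and scaled to the plate median. Toxicity meant calcein falling over 30%; decreased phagocytosis meant below 70% of median above 5 µM.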
Key:
[1] = tested on: Human fetal astrocytes; assay: loss of total cells relative to no-compound high-control median (toxicity); higher = more toxic (fewer cells); settings: 24 h
[2] = tested on: Human fetal astrocytes; assay: synaptosome phagocytosis (pHrodo/calcein intensity ratio) relative to plate median of data wells; higher = more phagocytosis; settings: 24 h

SMILES	loss of total cells ([1]; 1.39 µM)	loss of total cells ([1]; 2.78 µM)	loss of total cells ([1]; 5.56 µM)	loss of total cells ([1]; 11.11 µM)	loss of total cells ([1]; 22.22 µM)	synaptosome phagocytosis ([2]; 1.39 µM)	synaptosome phagocytosis ([2]; 2.78 µM)	synaptosome phagocytosis ([2]; 5.56 µM)	synaptosome phagocytosis ([2]; 11.11 µM)	synaptosome phagocytosis ([2]; 22.22 µM)
CCn1c(=O)c2[nH]c(-c3ccccc3)nc2n(CC)c1=O [1,3-Diethyl-8-phenylxanthine]	-16.1%	-15.6%	-22.6%	-9.4%	-7.9%	120%	93.6%	104%	109%	109%
COc1ccc(CCCOC(Cn2ccnc2)c2ccc(OC)cc2)cc1 (stereo not given)	2.2%	-17.7%	1.7%	7.3%	-10.7%	2.4%	11.3%	27.6%	12%	3.9%
CCCc1c(OCCCOc2ccc(OCC(=O)O)cc2)ccc(C(C)=O)c1O	17.2%	-21.4%	3.3%	-20.2%	0.8%	83.7%	113%	89.2%	69.5%	96.7%
CC#C[C@]1(O)CC[C@H]2[C@@H]3CCC4=CC(=O)CCC4=C3[C@@H](c3ccc(N(C)C)cc3)C[C@@]21C [Mifepristone]	7.1%	-0.5%	-4.2%	-3.8%	-13.1%	99.5%	95.9%	94.1%	99.8%	86.3%
CC(C)c1ccc2c(c1)c(SC(C)(C)C)c(CC(C)(C)C(=O)O)n2Cc1ccc(Cl)cc1	-9%	13.1%	-2.3%	22.9%	15%	106%	110%	88.2%	97.5%	32.6%
O=C(CCNNC(=O)c1ccncc1)NCc1ccccc1 [Nialamide]	-23.2%	18.6%	-5.2%	-1%	7.5%	133%	114%	92%	108%	92.3%
CC(C)NCC(O)c1ccc(O)c(O)c1 (stereo not drawn) [S(+)-Isoproterenol (+)-bitartrate]	1.4%	23.1%	17.4%	37.1%	21.5%	123%	131%	113%	174%	144%
O=c1c2ccccc2[nH]c(=S)n1CCN1CCC(=C(c2ccc(F)cc2)c2ccc(F)cc2)CC1 [Diacylglycerol Kinase Inhibitor II]	17.2%	-11.1%	9.1%	2.2%	14.4%	88.3%	84.2%	84.4%	74.6%	72.9%
COc1ccccc1N1CCN(CCN(C(=O)C2CCCCC2)c2ccccn2)CC1	-23.3%	-18.9%	-13.5%	-28.7%	-30.5%	69.5%	79.4%	78.9%	93.6%	118%
COc1ccc(CCN(C)CCCC(C#N)(c2cc(OC)c(OC)c(OC)c2)C(C)C)cc1OC (racemic) [(±)-Methoxyverapamil hydrochloride]	-21.3%	17.6%	11.7%	7.6%	13.1%	110%	81.4%	86.5%	115%	84.1%
NC(=O)c1ncn([C@@H]2O[C@H](CO)[C@@H](O)[C@H]2O)c1O [Mizoribine]	-0.5%	10.4%	-2.3%	18.1%	12.1%	130%	150%	78.2%	123%	127%
Cc1cccc(C)c1NC(=O)C[N+](C)(C)C [Lidocaine N-methyl hydrochloride]	-26.1%	-0.5%	-11.7%	22.9%	22.4%	104%	102%	86.9%	79.1%	110%
O=C(O)CN(CCOCCOCCN(CC(=O)O)CC(=O)O)CC(=O)O	-11.3%	-15.4%	-9.1%	-28.3%	4%	85.3%	80.4%	116%	95.5%	83.9%
COc1cccc2c1[C@@H]1CN(CCCCn3c(=O)[nH]c4c(sc5ncc(-c6ccccc6)nc54)c3=O)C[C@@H]1CO2 [Fiduxosin hydrochloride]	-4.6%	-13.7%	-3.3%	-2.2%	0.8%	87.4%	86.9%	114%	104%	137%
CN(C)CC/C=C1/c2ccccc2Sc2ccc(Cl)cc21 [Chlorprothixene hydrochloride]	-21.7%	-15.3%	1.4%	-6.7%	10.9%	65.2%	57.7%	75.3%	80.7%	93.4%
CC(C)(C)NCC(O)COc1cccc2[nH]c(=O)[nH]c12 (racemic)	-8.8%	-9.4%	2.5%	-1.3%	7.2%	91.8%	109%	105%	91.1%	101%
COc1cc(NS(C)(=O)=O)ccc1Nc1c2ccccc2nc2ccccc12 [Amsacrine hydrochloride]	-4.4%	4.5%	-4.1%	-14.8%	16.2%	107%	102%	72.8%	72.8%	82.4%
Nc1ncnc2c1ncn2[C@@H]1O[C@H](CO)[C@@H](O)[C@H]1O [Adenosine]	2.9%	-9.9%	-25.3%	-4.9%	11.7%	138%	122%	102%	110%	108%

Single values from above.
`O=C(O)CN(CCOCCOCCN(CC(=O)O)CC(=O)O)CC(=O)O` – loss of total cells ([1]; 1.39 µM): -11.3%
`NC(=O)c1ncn([C@@H]2O[C@H](CO)[C@@H](O)[C@H]2O)c1O` [Mizoribine] – loss of total cells ([1]; 11.11 µM): 18.1%

Following part.

SMILES	loss of total cells ([1]; 1.39 µM)	loss of total cells ([1]; 2.78 µM)	loss of total cells ([1]; 5.56 µM)	loss of total cells ([1]; 11.11 µM)	loss of total cells ([1]; 22.22 µM)	synaptosome phagocytosis ([2]; 1.39 µM)	synaptosome phagocytosis ([2]; 2.78 µM)	synaptosome phagocytosis ([2]; 5.56 µM)	synaptosome phagocytosis ([2]; 11.11 µM)	synaptosome phagocytosis ([2]; 22.22 µM)
CCCNC(=O)NS(=O)(=O)c1ccc(Cl)cc1 [Chlorpropamide]	-23.1%	-7.2%	-5.1%	-5.8%	8.6%	52.8%	93.5%	92.5%	109%	86.1%
C[C@@H](Oc1ccc(Oc2cnc3ccc(Cl)cc3n2)cc1)C(=O)O	-12.1%	-11.7%	-2.2%	-23.4%	-22.2%	104%	99.9%	104%	109%	133%
COc1cc2c(CCNC(C)=O)c[nH]c2cc1Cl [6-Chloromelatonin]	-8.4%	-9.6%	-3.2%	-7.6%	-4.9%	85.5%	94.6%	104%	102%	110%
OCC1OC(n2cnc3c(NC4CCCCC4)ncnc32)C(O)C1O (stereo not given) [N6-Cyclohexyladenosine]	-12.1%	-7.7%	-9.1%	-19.3%	4.8%	88.4%	98.8%	141%	80.1%	106%
N[C@@H](C(=O)N[C@@H]1C(=O)N2C(C(=O)O)=C(Cl)CS[C@H]12)c1ccccc1 [Cefaclor]	-19.4%	-5.7%	11.5%	-25.6%	-0.4%	107%	97.1%	90%	72.3%	111%
CCSC(=N)N [S-Ethylisothiourea hydrobromide]	-15.5%	-6%	0.8%	-23.8%	-4%	76.8%	123%	98.1%	99.1%	71%
CC(=O)[C@H]1CC[C@H]2[C@@H]3CCC4=CC(=O)CC[C@]4(C)[C@H]3CC[C@]12C [Progesterone]	-13.7%	10.4%	14.6%	21%	8.4%	122%	95.7%	112%	115%	105%
NCCC1CCCC(CCN)N1 (stereo not given) [MDL 26,630 trihydrochloride]	-14.7%	5.9%	-8.9%	20%	19.6%	124%	116%	118%	108%	158%
CSc1nc(N)c2ncn([C@@H]3O[C@H](COP(=O)(O)OP(=O)(O)O)[C@@H](O)[C@H]3O)c2n1 [2-Methylthioadenosine diphosphate trisodium]	-6.2%	8.6%	23%	0%	15%	96.6%	110%	116%	137%	111%
COC(=O)[C@H](NC(=O)c1cc(-c2ccccc2)nc2ccccc12)c1ccccc1	-7.9%	-19.7%	-12.3%	-24.7%	7.2%	90.3%	83.8%	89.2%	113%	104%
CCCCCCN(CCCCCC)C(=O)Cc1c(-c2ccc(F)cc2)[nH]c2ccccc12 [N,N-Dihexyl-2-(4-fluorophenyl)indole-3-acetamide]	0.4%	-4.3%	-4.1%	3.1%	6.4%	99.2%	101%	90.6%	48.4%	95.6%
CC[C@H](NC(=O)c1c(C)c(-c2ccccc2)nc2ccccc12)c1ccccc1	-5.1%	1.8%	-10.6%	1.3%	2.6%	102%	105%	92.5%	108%	110%
C[C@]12CCC(=O)C=C1CC[C@@H]1[C@@H]2[C@@H](O)C[C@@]2(C)[C@H]1CC[C@]2(O)C(=O)CO [Hydrocortisone]	15.5%	0.9%	2.5%	1.3%	4%	122%	109%	102%	127%	118%
C=CCN1CCc2cc(O)c(O)cc2C(c2ccccc2)C1 (racemic)	-2.2%	-11.1%	-5.6%	-13.4%	-18.9%	126%	78.1%	117%	114%	71.2%
NCCNC(=O)c1ccc(Cl)cc1 [Ro 16-6491 hydrochloride]	-14%	-48.8%	-7.3%	-24.9%	-13.2%	97.2%	109%	112%	111%	109%
Oc1ccc(C2CNCCc3c2cc(O)c(O)c3Cl)cc1 (stereo not given) [Fenoldopam bromide]	-5.4%	-12%	-14.8%	-12.1%	4.8%	86.2%	127%	118%	97.2%	130%
CN(Cc1cnc2nc(N)nc(N)c2n1)c1ccc(C(=O)N[C@@H](CCC(=O)O)C(=O)O)cc1 [Methotrexate]	-23.9%	-15.3%	-10.6%	-23.8%	6.4%	89.5%	88.2%	83.8%	75%	80.6%
COCCCC/C(=N\OCCN)c1ccc(C(F)(F)F)cc1 [Fluvoxamine maleate]	-8.8%	-12%	-9.1%	8.5%	-2.4%	86.1%	90.9%	83.9%	86.7%	105%

— the supplement of paper PMC10689618
